According to US20060111289A1, “Compositions and methods of using Alpha-fetoprotein growth inhibitory peptides” (Serometrix, LLC,, priority 2004, published 2006):
Part of at least one peptide drawing is inferred or uncertain, most often the ends. Where a SMILES comes first, the peptide text is derived from it.

System: MCF-7 and GI-101 cells
Assay: ATP luminescence cytostatic assay (6 days)
Type: cell-based, human
Conditions: peptide 10^−12 to 10^−8 M
Excerpt: FIG. 2 presents exemplary data for both in vivo and in vitro growth suppressive activities of the GIP-derived P149 and control peptides are depicted in GI-101 human ductal breast carcinoma and in MCF-7 human glandular breast carcinoma. • Panels A and A2: GI-101 and MCF-7 xenograft in nude mice administered P149 time-release pellets for 60 days and 30 days, respectively (N=5 mice/group). • Panels B and B2: GI-101 and MCF-7 in cell cultures treated with P149 and P187 at concentrations from 10-8 to 10-12 M for 6 days and assayed by ATP luminescence reagent employing a luciferin-luciferase system. The ATP assay, used to distinguish between cytostasis versus cytotoxicity, was used to confirm that P149 was cytostatic in its cell inhibitory activity at 6 days (see text for details).
In order to confirm whether P149 was indeed cytostatic, and not cytotoxic, an ATP-based cytostatic assay was performed which measures the decrease in cytosolic ATP during drug (i.e., for example, GIP peptide) treatment. This ATP luminescence assay has long been employed to distinguish between cytostatic versus cytotoxic chemotherapeutic sensitivity of drugs. […] After incubation of the cell cultures for 6 days, cytosolic ATP was extracted, stabilized, and quantitated from a standard curve produced from Berthold LB-96P luminometer readings using a luciferin-luciferase counting reagent.

## CC[C@H](C)[C@H](NC(=O)[C@H](CS)NC(=O)[C@H](CC(C)C)NC(=O)[C@H](Cc1c[nH]cn1)NC(=O)CNC(=O)[C@@H](NC(=O)[C@@H](NC(=O)[C@@H](NC(=O)[C@H](CC(=O)O)NC(=O)[C@H](C)NC(=O)[C@H](C)NC(=O)CNC(=O)[C@H](CCC(=O)O)NC(=O)CNC(=O)[C@H](CS)NC(=O)[C@H](C)NC(=O)[C@H](CC(C)C)NC(=O)[C@H](CC(C)C)NC(=O)[C@H](CCCCN)NC(=O)[C@H](CC(=O)O)NC(=O)[C@H](CCC(=O)O)NC(=O)[C@H](CO)NC(=O)[C@@H](N)CC(C)C)[C@@H](C)CC)[C@@H](C)CC)[C@@H](C)CC)C(=O)N[C@@H](CCCNC(=N)N)C(=O)N[C@@H](Cc1c[nH]cn1)C(=O)N[C@@H](CCC(=O)O)C(=O)N[C@@H](CCSC)C(=O)N[C@H](C(=O)N1CCC[C@H]1C(=O)N[C@H](C(=O)N[C@@H](CC(N)=O)C(=O)N1CCC[C@H]1C(=O)NCC(=O)N[C@H](C(=O)O)C(C)C)C(C)C)[C@@H](C)O [P149] (H-LSEDKLLACGEGAADIIIGHLCIRHEMTPVNPGV-OH)
  Growth inhibition / decrease in cytosolic ATP in the ATP luminescence assay: significantly different
Listed as GIP
  Growth inhibition / decrease in cytosolic ATP in the ATP luminescence assay: cytostatic (not cytotoxic) mode of growth inhibition
